“And” between values parts separate entries of the source, which are not always exact repeats. Equal entries are not always repeated. Some of the results follow. The main result of the screen is listed elsewhere. These columns were measured beside it and carry no call. The list favours compounds with an active or inconclusive main result. Words in brackets tell the shape of the fitted curve; partial curves, single points and poor fits give uncertain potencies.
Assay: qHTS Assay for Lipid Storage Modulators in Drosophila S3 Cells;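 for cell number change: cells counted by Cell Tracker Red CMTPX staining in the red channel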
Details: BODIPY lipid droplet fluorescence, 18-24 h; for cell number change: measured here: cell count max response, cells fed with added oleic acid
Outline: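 Laser-scanning cytometry quantifies lipid droplet accumulation (500–530 nm total intensity; droplet/cell object ratio) in oleic acid-fed (400 uM added) Drosophila S3 cells treated with a concentration series. 20 uM Triacsin C defined 100% inhibition.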

[1] = measured here: lipid fluorescence (Fed channel) AC50, cells fed with added oleic acid
[2] = measured here: cell number channel AC50, cells fed with added oleic acid

SMILES	cell number change	AC50 [1]	AC50 [2]
CCOC(=O)c1c(C)oc2ccc(OCC(=O)C(C)(C)C)cc12	-15.3%	0.731 µM [rising, single point]	–
CCOc1ccc(S(=O)(=O)N2CCCC(C(=O)NCc3cccnc3)C2)cc1C (stereo not given)	–	6.51 µM [rising, single point]	–
CC1(C)CC(=O)C=C(CN2C(=O)c3ccccc3C2=O)C1=O	16.9%	3.26 µM [rising, single point]	–
COc1cccc(N2C(=O)C(CC(=O)Nc3ccc(F)cc3)N(C3CCCCC3)C2=O)c1 (stereo not given)	16.6%	2.91 µM [rising, single point]	–
N#CCCn1cc(/C=C(\C#N)c2nc3ccccc3s2)c(-c2ccc(F)cc2)n1	–	6.51 µM [rising, single point]	6.51 µM [rising, single point]
O=C(NCc1ccc2c(c1)OCO2)c1cccc(N2CCCC2=O)c1	-4.22%	1.46 µM [rising, partial curve, poor fit]	–
COc1ccc(NC(=O)CSc2ncnc3c2sc2ccccc23)c(OC)c1	1.82%	6.51 µM [falling, single point]	6.51 µM [falling, single point]
Cc1ccc(NC(=O)c2noc3c2CC(C(C)(C)C)CC3)cc1 (stereo not given)	9.35%	0.116 µM [rising, full curve, poor fit]	–
CCC/C(=N/NC(=O)c1csc(C)c1C)c1ccc(Cl)s1	39.7%	–	2.91 µM [rising, full curve, poor fit]
COc1ccc(/C=C2/C(=O)N(CC3CCCO3)C(=S)N2C)c(OC)c1 (stereo not given)	30.7%	2.31 µM [rising, partial curve]	5.17 µM [rising, partial curve]
Cc1ccc(S(=O)(=O)N2CCN(C(=O)c3n[nH]c4ccccc34)CC2)cc1	-1.06%	1.64 µM [falling, partial curve]	–
CCOC(=O)c1nn(-c2ccccc2F)c2nc(-c3ccco3)c(C#N)c(=O)n12	23.2%	3.66 µM [rising, partial curve, poor fit]	6.51 µM [rising, single point]
C=CCNS(=O)(=O)CC12CCC(CC1=O)C2(C)C (stereo not given)	-35.3%	–	29.1 µM [falling, single point]
Nc1nnc(-c2cc3ccccc3oc2=O)s1	–	1.46 µM [rising, partial curve]	2.31 µM [rising, partial curve]
CCC(=O)Nc1ccc(Nc2nc(Cl)nc(Nc3ccc(NC(=O)CC)cc3)n2)cc1	–	–	0.00411 µM [rising, full curve, poor fit]
Cc1cc(-c2nnc(CCC(=O)NCc3cc(F)cc(C(F)(F)F)c3)o2)no1	2.64%	5.8 µM [rising, single point]	–
COc1cccc(CNC(=O)C2CCC(CNS(=O)(=O)c3cccc4cccnc34)CC2)c1 (stereo not given)	–	0.58 µM [falling, single point]	–
NC(=O)c1ccnc2c(O)cccc12	-28.7% and -21.5%	820 nM [falling, single point] and 13 µM [falling, single point]	0.103 µM [falling, full curve, poor fit]
Cc1cc2cc(CNC(=O)c3cccc([N+](=O)[O-])c3)ccc2[nH]1	17%	14.6 µM [rising, partial curve, poor fit]	–
CCN(CC)S(=O)(=O)c1ccc(Cl)c(NC(=O)COC(=O)c2cccn2C)c1	56.8%	0.82 µM [rising, full curve]	–

As entered above:
AC50 [1], O=C(NCc1ccc2c(c1)OCO2)c1cccc(N2CCCC2=O)c1 reads 1.46 µM [rising, partial curve, poor fit]
AC50 [1], CC1(C)CC(=O)C=C(CN2C(=O)c3ccccc3C2=O)C1=O reads 3.26 µM [rising, single point]
AC50 [2], CCC(=O)Nc1ccc(Nc2nc(Cl)nc(Nc3ccc(NC(=O)CC)cc3)n2)cc1 reads 0.00411 µM [rising, full curve, poor fit]

Further entries:

SMILES	cell number change	AC50 [1]	AC50 [2]
COc1ccc(N(CC(=O)O)S(=O)(=O)c2ccccc2[N+](=O)[O-])c(OC)c1	-9.5%	6.51 µM [falling, single point]	–
COc1ccc2cc(C(=O)C3CCCN(Cc4cccc(C)n4)C3)ccc2c1 (stereo not given)	-9.41%	–	–
O=C(c1ccc(Br)o1)N(Cc1ccccc1)c1ccccn1	-9.25%	6.51 µM [rising, single point]	–
CC(C)(C)n1nnnc1C(c1ccc(C#N)cc1)N1CCCC2(CCCCC2)C1 (stereo not given)	-56.1%	3.26 µM [rising, single point]	29.1 µM [falling, single point]
Cc1ccc2[nH]c3c(c2c1)CCc1cn[nH]c1-3	–	0.366 µM [rising, partial curve, poor fit]	0.326 µM [rising, partial curve, poor fit]
O=C(c1ccccc1)C1CCc2occc2C1=O (stereo not given)	-25.4%	4.61 µM [falling, full curve]	–
COc1ccc(CNc2ccc3c(c2)ncn3-c2ccccc2OC)cc1	-7.13%	–	–
CC1(c2ccc(OCC(N)=O)cc2)NC(=O)NC1=O (stereo not given)	–	6.51 µM [rising, single point]	–
O=C(N/N=C/C=C/c1ccccc1)c1cccs1	51.8%	29.1 µM [rising, single point]	29.1 µM [rising, single point]
Cc1ccc(S(=O)(=O)N2CCC(C(=O)OCC(=O)N3CC(C)CC(C)C3)CC2)cc1C (stereo not given)	-16.5%	–	–
CCN1C(=O)[C@@H]2[C@@H](c3ccc(-c4ccc(OC)cc4)cc3)N3CCC[C@@]3(C(=O)OC)[C@@H]2C1=O	–	0.082 µM [rising, full curve, poor fit]	–
NC(=O)C[n+]1cccc(C(N)=O)c1	–	1.64 µM [falling, partial curve]	–
COc1cccc(CNC(=O)c2ccc(COc3ccccc3)cc2)c1	23.8%	29.1 µM [rising, single point]	–
S=c1[nH]ccn1CCc1ccccc1	10.6%	9.2 µM [rising, single point]	–
COc1ccc(NS(=O)(=O)c2cc3c(cc2C)N(C(C)=O)CCO3)cc1	-8.36%	3.26 µM [rising, partial curve, poor fit]	–
Cc1cc(C)c2c(CN3CCOCC3)cc(=O)oc2c1	33.3%	–	1.16 µM [rising, partial curve]
CC(Sc1nnnn1C1CC1)C(=O)Nc1cccc(S(=O)(=O)N2CCOCC2)c1 (stereo not given)	-75%	–	5.8 µM [falling, full curve]
COc1ccc(CN(C(=O)c2oc3ccccc3c2C)C2CCS(=O)(=O)C2)cc1 (stereo not given)	-31%	0.58 µM [rising, full curve]	18.4 µM [falling, single point]
CCOc1ccc(OCCOCCN2CCc3ccccc3C2)cc1	4.37%	–	–
Cc1ccc2cn[nH]c2c1[N+](=O)[O-]	0.221%	0.731 µM [falling, single point]	–

SMILES	cell number change	AC50 [1]	AC50 [2]
CC/C(=N/NC(=O)CCC(=O)Nc1ccccc1OC)c1ccccc1	8.53%	–	0.461 µM [falling, single point]
COc1ccc(N(CC(=O)N2CCN(c3ccccc3)CC2)S(=O)(=O)c2ccc(C)cc2)cc1	-3.24%	2.91 µM [rising, single point]	–
CCOC(=O)c1[nH]c2ccccc2c1NC(=S)Nc1cccc(C)c1	13.1%	14.6 µM [rising, partial curve, poor fit]	–
CCOC(=O)CCCN1CC(O)=C(c2nc(-c3ccc(Cl)cc3)cs2)C1=N	5.35%	6.51 µM [falling, single point]	–
O=C(C1CCCN1S(=O)(=O)c1ccc(Cl)c(Cl)c1)N1CCOCC1 (stereo not given)	-27.1%	0.206 µM [falling, full curve, poor fit]	–
COc1ccc(CC(=O)NCc2n[nH]c(=S)n2-c2ccc(Br)cc2)cc1	–	0.58 µM [rising, single point]	–
Cc1ccc(N(C(C)C(=O)Nc2ccc3c(c2)OCO3)S(C)(=O)=O)cc1 (stereo not given)	-13.3%	1.64 µM [rising, partial curve]	–
Brc1ccc(C2=Nc3ccccc3C(c3ccncc3)=NN2)cc1	16.8%	0.461 µM [rising, full curve, poor fit]	–
NS(=O)(=O)c1cccc(NC(=O)C2CC(=O)N(Cc3ccco3)C2)c1 (stereo not given)	-35.7%	29.1 µM [falling, single point]	3.66 µM [falling, full curve]
COc1ccc(O)c(C(=O)c2cnn(S(=O)(=O)c3ccc(C)cc3)c2)c1	-0.138%	11.6 µM [falling, partial curve]	–
CC(C)(C)c1cc(NS(=O)(=O)c2cccs2)no1	-6.08%	–	–
CCOC(=O)C1CCN(C(=O)CCc2nnc3ccc(N4CCN(C)CC4)nn23)CC1	9.55%	0.116 µM [rising, partial curve, poor fit]	–
Cc1cnc(C(=O)OCC(=O)c2c(N)n(CC(C)C)c(=O)n(C)c2=O)cn1	14.1%	–	–
O=C(O)CCCC(=O)Nc1ccccc1C(=O)N1CCCC1	–	5.8 µM [falling, single point]	–
NS(=O)(=O)c1ccc(N/N=C/c2ccccc2C(=O)O)c([N+](=O)[O-])c1	33.5%	0.231 µM [falling, full curve, poor fit]	–
CN(Cc1ccc(F)cc1)C(=O)CNC(=O)c1cccs1	1.17%	0.082 µM [falling, full curve, poor fit]	–
COc1ccc(C)cc1NC(=O)CCS(=O)(=O)c1ccc2c(c1)oc(=O)n2C	-8.26%	0.731 µM [falling, single point]	–
COC(=O)c1ccc(CNC(=O)c2c3c(nc4ccccc24)CCN(Cc2ccccc2)C3)cc1	9.03%	0.82 µM [falling, full curve, poor fit]	–

A portion taken from the entries so far:
SMILES	cell number change	AC50 [1]	AC50 [2]
O=C(C1CCCN1S(=O)(=O)c1ccc(Cl)c(Cl)c1)N1CCOCC1 (stereo not given)	-27.1%	0.206 µM [falling, full curve, poor fit]	–
COc1ccc(CC(=O)NCc2n[nH]c(=S)n2-c2ccc(Br)cc2)cc1	–	0.58 µM [rising, single point]	–
